Experimental data as given in PMC8254043.
Positions count from the first letter of the chain named. Results are given in words; binding and its absence hold for the method and conditions named. In cells and extracts the contact can be indirect. Some entries that bind do so weakly or less than the wild type. Values belong to the molecule of their own block, whether it stands above or below them.

Protein sequences, listed by entry. Tags and fused reporters are not part of them.
UniProt Q9UQM7: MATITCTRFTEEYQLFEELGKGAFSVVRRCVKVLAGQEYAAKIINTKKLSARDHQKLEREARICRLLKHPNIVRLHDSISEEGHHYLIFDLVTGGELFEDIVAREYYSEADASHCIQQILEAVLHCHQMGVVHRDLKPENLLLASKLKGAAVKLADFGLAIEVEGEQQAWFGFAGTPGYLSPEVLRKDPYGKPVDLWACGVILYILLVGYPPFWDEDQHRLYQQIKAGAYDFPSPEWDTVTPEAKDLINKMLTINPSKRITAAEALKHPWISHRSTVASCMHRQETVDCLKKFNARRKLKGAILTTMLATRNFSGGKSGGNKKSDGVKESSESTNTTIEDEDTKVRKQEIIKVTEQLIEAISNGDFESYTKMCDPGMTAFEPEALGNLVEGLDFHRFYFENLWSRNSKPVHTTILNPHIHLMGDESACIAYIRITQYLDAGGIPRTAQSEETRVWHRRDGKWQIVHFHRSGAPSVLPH
UniProt P11798: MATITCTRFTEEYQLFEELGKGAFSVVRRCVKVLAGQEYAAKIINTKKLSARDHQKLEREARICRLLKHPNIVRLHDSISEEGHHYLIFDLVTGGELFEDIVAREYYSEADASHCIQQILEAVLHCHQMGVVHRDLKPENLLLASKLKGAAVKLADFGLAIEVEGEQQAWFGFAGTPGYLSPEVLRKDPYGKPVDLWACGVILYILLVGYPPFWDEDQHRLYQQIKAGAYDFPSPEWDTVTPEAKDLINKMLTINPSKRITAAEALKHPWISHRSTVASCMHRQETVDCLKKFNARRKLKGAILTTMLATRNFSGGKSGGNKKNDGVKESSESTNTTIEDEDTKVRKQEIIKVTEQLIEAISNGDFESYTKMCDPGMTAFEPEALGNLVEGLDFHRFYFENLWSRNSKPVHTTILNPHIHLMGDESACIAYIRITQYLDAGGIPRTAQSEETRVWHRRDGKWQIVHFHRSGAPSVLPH
UniProt P97346: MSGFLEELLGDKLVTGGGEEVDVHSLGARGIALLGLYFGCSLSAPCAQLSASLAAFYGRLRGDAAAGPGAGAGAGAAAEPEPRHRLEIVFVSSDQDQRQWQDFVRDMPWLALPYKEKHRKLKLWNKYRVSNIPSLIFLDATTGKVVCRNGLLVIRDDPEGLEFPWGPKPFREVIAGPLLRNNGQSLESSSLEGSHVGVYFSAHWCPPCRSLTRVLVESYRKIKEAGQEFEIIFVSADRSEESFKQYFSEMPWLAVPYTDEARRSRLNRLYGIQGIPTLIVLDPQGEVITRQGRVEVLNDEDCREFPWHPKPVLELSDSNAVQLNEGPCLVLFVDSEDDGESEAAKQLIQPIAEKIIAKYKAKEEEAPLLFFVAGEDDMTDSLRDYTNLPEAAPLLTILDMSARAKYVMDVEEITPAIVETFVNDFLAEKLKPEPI

Experiments:
[1] = target: T1, Nucleoredoxin (NXN) in HEK293 cell lysate (human (endogenous in HEK293)) (UniProt Q6DKJ4); assay: co-IP; HEK293 crude lysate (RIPA buffer, 1 mg); anti-NXN or anti-Camk2a antibody with protein A/G PLUS-agarose beads overnight at 4 °C; Western blot with IR dye secondary antibodies
T1 sequence: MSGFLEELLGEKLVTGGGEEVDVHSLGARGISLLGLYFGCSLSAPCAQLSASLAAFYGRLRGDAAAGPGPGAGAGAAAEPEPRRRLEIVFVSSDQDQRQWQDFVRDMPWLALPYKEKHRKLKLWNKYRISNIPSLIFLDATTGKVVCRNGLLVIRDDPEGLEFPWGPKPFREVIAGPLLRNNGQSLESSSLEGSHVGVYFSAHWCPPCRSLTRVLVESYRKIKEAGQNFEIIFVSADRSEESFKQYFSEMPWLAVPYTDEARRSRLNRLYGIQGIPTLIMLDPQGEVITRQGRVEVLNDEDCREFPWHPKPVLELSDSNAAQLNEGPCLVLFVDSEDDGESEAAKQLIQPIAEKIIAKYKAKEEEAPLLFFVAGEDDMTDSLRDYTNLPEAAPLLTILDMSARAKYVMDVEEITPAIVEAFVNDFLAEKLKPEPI

[2] = target: Calcium calmodulin kinase 2a (Camk2a) in HEK293 cell lysate (human (endogenous in HEK293)) (UniProt Q9UQM7); assay: as above
[3] = target: Calcium calmodulin kinase 2a (Camk2a), mouse, endogenous in primary cortical neurons and brain (mouse (endogenous in primary cortical neurons)) (UniProt P11798); assay: proximity ligation; Duolink In Situ PLA kit on fixed, permeabilised mouse primary cortical neuron cultures of NXN-flfl and Nestin-NXN-/- mice; primary antibodies against NXN and Camk2a

binding [1]: binds
Molecule: Calcium calmodulin kinase 2a (Camk2a) in HEK293 cell lysate (from UniProt Q9UQM7 1-478)

binding [2]: binds
B1: Nucleoredoxin (NXN) in HEK293 cell lysate (protein, UniProt Q6DKJ4 1-435)
chain: T1 sequence

binding [3]: binds
B2: Nucleoredoxin (NXN), mouse, endogenous in primary cortical neurons (protein, UniProt P97346 1-435)
chain: T1 sequence with E11D, S32A, P70A, R84H, I129V, N228E, M280V, A321V, A420T
